From PubChem BioAssay AID2417 (National Center for Advancing Translational Sciences (NCATS), 2010)
The whole screen tested about 140,000 compounds, of which about 4,300 (3.1%) were called active. The shares of active, inactive and inconclusive entries below differ from those in the screen.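 Rule for the calls: active = readout at or below -70, meaning at least 70% loss of cells showing the perinucleolar compartment, a nuclear body marking cancer cells; inconclusive = readout between -30 and a set limit; inactive = the rest.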

Assay: High Content Assay for Compounds that inhibit the Assembly of the Perinucleolar Compartment;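 note: plate controls were DMSO wells for no effect and camptothecin positive control wells for full effect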
Details: PC3M PTB-GFP, PNC prevalence imaging, 16 h; at 10 µM; stronger effect = lower value
Method in brief: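 Compounds are pinned in duplicate onto adhered PC3M cells stably expressing GFP-tagged PTB and incubated 16 h at 37 C. Cells are then fixed, nuclei stained with Hoechst, and PNC-positive cells counted.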
With `CCCN1C(=O)/C(=C/c2ccc(N3CCCC3)c(C)c2)NC1=S` the activity change (PNC), negative = inhibition was inconclusive: -45.9%.
For `Cc1noc(C)c1C(=O)Nc1cccnc1`, the activity change (PNC), negative = inhibition was inconclusive: -38.6%.
In the case of `O=[N+]([O-])c1ccccc1OCCOCCOc1cccc2cccnc12`, the activity change (PNC), negative = inhibition is reported as active: -85.6%.
With `O=C(CCCOc1ccc(Cl)cc1)N1CCCCCC1` the activity change (PNC), negative = inhibition was active: -99.1%.
In the case of `CSc1nccc(-c2nn(-c3ccc(C)cc3)ccc2=O)n1`, the activity change (PNC), negative = inhibition is reported as inconclusive: -71.4%.
In the case of `O=C(COC(=O)c1ccc2c(c1)OCO2)Nc1ncc(Cl)cc1Cl`, the activity change (PNC), negative = inhibition is reported as inconclusive: -72.6%.
In the case of `CC1(C)CC(=O)C(C=NCCCn2ccnc2)=C(O)C1`, the activity change (PNC), negative = inhibition is reported as inconclusive: -59.4%.
For `O=C(CSc1nc2ccc([N+](=O)[O-])cc2[nH]1)NC1CCCC1`, the activity change (PNC), negative = inhibition was inconclusive: -37%.
In the case of `COc1ccc(C2C(C(=O)NCc3ccccn3)c3ccccc3C(=O)N2C)cc1OC` (stereo not drawn), the activity change (PNC), negative = inhibition is reported as active: -88.4%.
In the case of `Cc1cc(C(F)(F)F)n(-c2nc(C(=O)N/N=C/c3ccc(F)cc3)cs2)n1`, the activity change (PNC), negative = inhibition is reported as active: -106%.
With `CCCn1c(NCc2ccccc2NS(=O)(=O)c2ccc(C)cc2)nc2ccccc21` the activity change (PNC), negative = inhibition was inconclusive: -43.4%.
For `Cn1c2c(c(=O)n(C)c1=O)CN(CCCN1CCOCC1)CN2`, the activity change (PNC), negative = inhibition was active: -84.1%.
With `CCCCOc1ccc(C)cc1CN(CCO)CCO` the activity change (PNC), negative = inhibition was inconclusive: -30.4%.
With `Cc1cc(C)n2nc(SCc3nnc(SCc4ccccc4Cl)s3)nc2n1` the activity change (PNC), negative = inhibition was inconclusive: -45.6%.
In the case of `O=CN(/C=C1\Sc2ccccc2C1=O)Cc1ccccc1`, the activity change (PNC), negative = inhibition is reported as inconclusive: -40.5%.
For `CCOc1ccc(-c2cc(NC(=O)Cn3ncc4c3-c3ccccc3OC4)on2)cc1OCC`, the activity change (PNC), negative = inhibition was inactive: 4.64%.
With `COCc1cc(C)n(CC(=O)Nc2ccccc2C(=O)OC)c(=O)c1C#N` the activity change (PNC), negative = inhibition was inconclusive: -30.6%.
For `Cc1ccc2c(c1)N(CC(=O)NC1CCCCC1C)C(=O)CO2` (stereo not drawn), the activity change (PNC), negative = inhibition was inconclusive: -41.8%.
With `COc1ccc(N2CCN(C(CNS(=O)(=O)c3ccc4c(c3)OCCO4)c3ccco3)CC2)cc1` (stereo not drawn) the activity change (PNC), negative = inhibition was inconclusive: -57.2%.
With `Cn1c(SCC(=O)N2CCOCC2)nnc1-c1cnccn1` the activity change (PNC), negative = inhibition was inconclusive: -35.8%.
In the case of `O=C(O)CCc1nc2ccccc2n(CCc2ccccc2)c1=O`, the activity change (PNC), negative = inhibition is reported as inconclusive: -50%.
For `O=C(CCN1C(=O)c2ccccc2C1=O)Nc1ccc(-c2cn3ccsc3n2)cc1`, the activity change (PNC), negative = inhibition was inconclusive: -45.8%.
In the case of `COc1ccccc1/C=N/NC(=O)C(=O)Nc1ccccc1OC(F)(F)C(F)F`, the activity change (PNC), negative = inhibition is reported as inactive: 5.04%.
With `O=C(NC1CCCc2ccccc21)C1CCN(S(=O)(=O)c2ccccc2F)CC1` (stereo not drawn) the activity change (PNC), negative = inhibition was inactive: 32.2%.
For `O/N=C1/CCCSc2ccccc21`, the activity change (PNC), negative = inhibition was inactive: -23.9%.
In the case of `CCOC(=O)C1CCCN(C(=S)Nc2ccc(C)cc2C)C1` (stereo not drawn), the activity change (PNC), negative = inhibition is reported as inconclusive: -31.3%.
For `CCc1ccc(OCC(=O)N/N=C\c2ccco2)c([N+](=O)[O-])c1`, the activity change (PNC), negative = inhibition was inactive: 16.2%.
For `COc1ccc(C)cc1N(CC(=O)Nc1cccc(N(C)S(C)(=O)=O)c1)S(C)(=O)=O`, the activity change (PNC), negative = inhibition was inconclusive: -47.9%.
With `Cc1oc(-c2ccccc2F)nc1CS(=O)(=O)CC(=O)NCc1ccco1` the activity change (PNC), negative = inhibition was inconclusive: -32.1%.
With `CCS(=O)(=O)N1CCCC(c2nc(-c3cccc(OC)c3)no2)C1` (stereo not drawn) the activity change (PNC), negative = inhibition was inconclusive: -45.7%.
With `CC(C)OP(=O)(OC(C)C)C(NC(=O)c1ccc(Br)cc1)c1ccccc1` (stereo not drawn) the activity change (PNC), negative = inhibition was inconclusive: -36.2%.
With `O=C(C1CCCO1)N1CCN(C(=S)Nc2ccccc2Cl)CC1` (stereo not drawn) the activity change (PNC), negative = inhibition was inactive: 30.2%.
For `O=C(Nc1ccc2c(c1)OCO2)Nc1cnccn1`, the activity change (PNC), negative = inhibition was inconclusive: -54.7%.
With `Cc1cccn2c(=O)c3cc(C#N)c(=O)n(CC4CCCO4)c3nc12` (stereo not drawn) the activity change (PNC), negative = inhibition was inactive: 54.3%.
For `COc1ccccc1NC(=O)C1=C(C)Nc2ncnn2C1c1ccc(C)o1` (stereo not drawn), the activity change (PNC), negative = inhibition was inactive: -27.1%.
With `CCC(C)NC(=O)C1(C)CCC(=O)N1CCc1ccc(OC)c(OC)c1` (stereo not drawn) the activity change (PNC), negative = inhibition was inconclusive: -37.7%.
For `CC1(C)CC(=O)N(CC(=O)N2CCN(c3ncccn3)CC2)c2ccccc2S1(=O)=O`, the activity change (PNC), negative = inhibition was inconclusive: -37.4%.
In the case of `Cc1ccc(F)cc1NC(=O)Cc1ncc(C(F)(F)F)cc1Cl`, the activity change (PNC), negative = inhibition is reported as inconclusive: -41.7%.
For `C=CCNC(=S)Nc1ccc(Br)cc1F`, the activity change (PNC), negative = inhibition was active: -87.8%.
With `C=CCN1CCN(C(c2ccc(OC)c(OC)c2)c2nnnn2C(C)(C)C)CC1` (stereo not drawn) the activity change (PNC), negative = inhibition was inconclusive: -43.2%.
In the case of `O=C1CC(Sc2ncn[nH]2)C(=O)N1c1ccccc1` (stereo not drawn), the activity change (PNC), negative = inhibition is reported as inconclusive: -58.2%.
With `O=c1nc(-c2ccccc2)cc(C(F)(F)F)[nH]1` the activity change (PNC), negative = inhibition was inconclusive: -53%.
In the case of `COC(=O)Cc1c[nH]c2ccc(OCC(O)CNC(C)C)cc12` (stereo not drawn), the activity change (PNC), negative = inhibition is reported as inconclusive: -34.9%.
With `CN(C)S(=O)(=O)c1cccc(NC(=O)COC(=O)c2ccc(Br)o2)c1` the activity change (PNC), negative = inhibition was inactive: 109%.
In the case of `Cc1cccc2cc(/C=N/NC(=O)c3ccccc3O)c(Cl)nc12`, the activity change (PNC), negative = inhibition is reported as inconclusive: -44.7%.
In the case of `O=C(CSc1nc(C2CC2)nc2ccccc12)N1c2ccccc2Sc2ccc(C(F)(F)F)cc21`, the activity change (PNC), negative = inhibition is reported as inactive: -3.96%.
For `CCCOc1ccc(Cn2c(=O)oc3ccc(C)cc32)cc1OC`, the activity change (PNC), negative = inhibition was inconclusive: -65.2%.
With `CCC1CC2CC(NC(C)=O)C1C2` (stereo not drawn) the activity change (PNC), negative = inhibition was inactive: 83.3%.
For `O=C(Nc1cccc(Oc2ccc3c(c2)C(=O)NC3=O)c1)c1ccco1`, the activity change (PNC), negative = inhibition was active: -91.9%.
In the case of `O=C(NNc1ccc([N+](=O)[O-])cc1[N+](=O)[O-])C1C2CCCCC21` (stereo not drawn), the activity change (PNC), negative = inhibition is reported as inconclusive: -31.3%.
In the case of `COc1ccc(C(=O)NC(NC(=O)c2ccc(OC)c(OC)c2)c2ccccc2F)cc1OC`, the activity change (PNC), negative = inhibition is reported as inactive: 43.9%.
In the case of `CCOc1ccc(NC(=O)C(C)Oc2ccccc2C(=O)Nc2cccc(Cl)c2Cl)cc1` (stereo not drawn), the activity change (PNC), negative = inhibition is reported as active: -110%.
For `CCOC(=O)Cn1c(=N)n(CCOc2ccc3ccccc3c2)c2ccccc21`, the activity change (PNC), negative = inhibition was inconclusive: -35.4%.
In the case of `N#CC1=C(N)SC(N)=C(C#N)C1Cc1ccccc1`, the activity change (PNC), negative = inhibition is reported as inactive: 33.7%.
For `Cc1nc(C)c2c(c1C(F)(F)F)-c1ccccc1C2(F)F`, the activity change (PNC), negative = inhibition was inconclusive: -47.5%.
With `CC(C)COC(=O)NCCOC(=O)Nc1cccc(Cl)c1` the activity change (PNC), negative = inhibition was inconclusive: -39.1%.
In the case of `O=C(Nc1nc(-c2cccs2)cs1)c1ccc(S(=O)(=O)N2CCCCC2)cc1`, the activity change (PNC), negative = inhibition is reported as inactive: -15.2%.
With `CSc1ccccc1NC(=O)CSc1nnnn1-c1ccccc1SC` the activity change (PNC), negative = inhibition was inconclusive: -43.3%.
